Paper doi:10.1101/2020.06.29.177584
These are yes or no findings as the source states them, for the method shown. Binding seen in cells or lysates may run through a third protein. Some entries that bind do so weakly or less than the wild type. Where a sequence is shown, tags or fusion partners need not be part of it.

By UniProt entry, the sequences of proteins in these tests, tags left out. Where a name states a change or a piece, a line headed by the entry shows the natural chain unless it says otherwise. Residues count along the entry.
UniProt Q3URK3, whole entry: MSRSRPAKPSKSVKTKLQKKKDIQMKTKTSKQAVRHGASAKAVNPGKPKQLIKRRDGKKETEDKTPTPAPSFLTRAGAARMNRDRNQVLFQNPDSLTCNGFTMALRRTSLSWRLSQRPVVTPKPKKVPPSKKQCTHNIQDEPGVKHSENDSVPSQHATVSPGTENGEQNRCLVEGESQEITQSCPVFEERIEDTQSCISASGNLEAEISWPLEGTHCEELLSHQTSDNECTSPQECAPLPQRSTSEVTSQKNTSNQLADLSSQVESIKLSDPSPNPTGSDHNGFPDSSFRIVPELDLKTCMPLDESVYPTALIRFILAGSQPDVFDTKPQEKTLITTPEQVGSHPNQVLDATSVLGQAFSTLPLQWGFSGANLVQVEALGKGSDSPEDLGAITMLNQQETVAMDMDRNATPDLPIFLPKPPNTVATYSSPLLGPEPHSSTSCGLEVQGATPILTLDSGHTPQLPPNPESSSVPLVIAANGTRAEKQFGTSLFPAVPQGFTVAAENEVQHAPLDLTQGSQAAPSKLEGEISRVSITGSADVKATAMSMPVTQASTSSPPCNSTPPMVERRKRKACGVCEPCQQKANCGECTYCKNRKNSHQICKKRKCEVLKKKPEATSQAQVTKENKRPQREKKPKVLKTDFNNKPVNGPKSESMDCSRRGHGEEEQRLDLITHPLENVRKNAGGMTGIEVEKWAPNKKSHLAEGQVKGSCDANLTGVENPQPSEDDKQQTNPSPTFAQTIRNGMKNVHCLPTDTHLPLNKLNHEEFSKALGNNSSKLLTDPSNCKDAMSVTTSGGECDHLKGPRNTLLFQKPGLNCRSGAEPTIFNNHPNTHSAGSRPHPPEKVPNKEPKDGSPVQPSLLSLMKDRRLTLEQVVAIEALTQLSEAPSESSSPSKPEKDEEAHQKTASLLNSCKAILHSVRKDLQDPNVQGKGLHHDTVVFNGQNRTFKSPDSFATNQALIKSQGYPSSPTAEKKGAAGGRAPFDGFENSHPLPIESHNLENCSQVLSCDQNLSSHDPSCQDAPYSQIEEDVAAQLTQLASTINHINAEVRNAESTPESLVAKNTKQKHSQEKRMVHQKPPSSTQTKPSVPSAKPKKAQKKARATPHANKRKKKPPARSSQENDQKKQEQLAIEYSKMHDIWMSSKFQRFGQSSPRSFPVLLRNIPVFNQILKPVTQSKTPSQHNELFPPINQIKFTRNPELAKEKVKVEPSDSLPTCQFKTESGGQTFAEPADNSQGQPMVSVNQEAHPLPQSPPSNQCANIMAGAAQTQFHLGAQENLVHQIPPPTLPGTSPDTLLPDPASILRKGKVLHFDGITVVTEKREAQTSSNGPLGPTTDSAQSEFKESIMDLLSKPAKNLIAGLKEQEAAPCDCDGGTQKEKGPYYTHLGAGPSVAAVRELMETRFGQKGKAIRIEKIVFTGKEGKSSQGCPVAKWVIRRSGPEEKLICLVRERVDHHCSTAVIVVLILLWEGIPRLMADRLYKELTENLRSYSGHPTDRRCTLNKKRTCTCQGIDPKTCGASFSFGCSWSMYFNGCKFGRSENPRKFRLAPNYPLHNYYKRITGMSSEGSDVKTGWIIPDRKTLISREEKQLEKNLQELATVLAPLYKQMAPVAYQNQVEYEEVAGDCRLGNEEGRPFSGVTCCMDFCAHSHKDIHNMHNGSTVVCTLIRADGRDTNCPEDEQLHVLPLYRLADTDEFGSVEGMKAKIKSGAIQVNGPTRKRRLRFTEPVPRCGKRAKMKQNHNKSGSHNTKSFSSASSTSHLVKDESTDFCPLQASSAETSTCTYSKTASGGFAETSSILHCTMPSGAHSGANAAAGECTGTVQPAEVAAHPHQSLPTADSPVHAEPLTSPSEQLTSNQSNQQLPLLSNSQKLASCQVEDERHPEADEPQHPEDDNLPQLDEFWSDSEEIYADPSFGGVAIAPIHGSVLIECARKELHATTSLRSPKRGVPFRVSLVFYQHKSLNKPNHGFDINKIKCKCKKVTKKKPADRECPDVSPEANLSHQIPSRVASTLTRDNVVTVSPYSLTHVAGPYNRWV
UniProt Q3URK3, 1-215: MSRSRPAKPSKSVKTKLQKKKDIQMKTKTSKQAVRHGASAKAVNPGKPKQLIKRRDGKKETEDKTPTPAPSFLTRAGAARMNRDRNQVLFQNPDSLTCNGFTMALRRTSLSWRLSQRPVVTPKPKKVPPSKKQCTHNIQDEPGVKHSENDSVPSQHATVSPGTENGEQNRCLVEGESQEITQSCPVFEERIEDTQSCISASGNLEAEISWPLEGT
UniProt Q3URK3, 1-321: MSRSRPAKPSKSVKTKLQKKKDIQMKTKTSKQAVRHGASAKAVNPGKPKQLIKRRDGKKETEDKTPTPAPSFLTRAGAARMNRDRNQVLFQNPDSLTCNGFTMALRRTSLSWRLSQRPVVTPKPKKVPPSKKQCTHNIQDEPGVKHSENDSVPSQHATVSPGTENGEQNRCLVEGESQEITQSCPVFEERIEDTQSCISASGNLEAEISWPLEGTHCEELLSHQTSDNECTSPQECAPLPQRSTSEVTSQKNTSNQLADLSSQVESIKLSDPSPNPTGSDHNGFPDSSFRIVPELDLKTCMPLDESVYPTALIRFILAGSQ
UniProt Q3URK3, 1-631: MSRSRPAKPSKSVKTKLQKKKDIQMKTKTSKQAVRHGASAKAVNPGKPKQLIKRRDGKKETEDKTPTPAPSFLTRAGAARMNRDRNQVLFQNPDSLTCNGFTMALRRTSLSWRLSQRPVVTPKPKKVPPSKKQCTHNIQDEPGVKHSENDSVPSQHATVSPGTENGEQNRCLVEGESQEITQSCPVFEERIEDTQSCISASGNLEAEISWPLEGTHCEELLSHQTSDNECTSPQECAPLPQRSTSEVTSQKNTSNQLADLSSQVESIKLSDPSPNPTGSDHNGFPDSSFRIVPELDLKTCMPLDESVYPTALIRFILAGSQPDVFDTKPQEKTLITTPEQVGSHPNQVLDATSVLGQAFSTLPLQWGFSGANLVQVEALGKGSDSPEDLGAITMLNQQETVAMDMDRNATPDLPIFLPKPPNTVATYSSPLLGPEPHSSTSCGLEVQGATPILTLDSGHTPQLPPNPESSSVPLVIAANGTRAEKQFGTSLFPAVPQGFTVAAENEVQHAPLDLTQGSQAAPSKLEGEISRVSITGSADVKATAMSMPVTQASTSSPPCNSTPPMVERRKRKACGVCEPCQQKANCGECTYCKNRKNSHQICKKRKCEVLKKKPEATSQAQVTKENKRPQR
UniProt Q3URK3, 1-1379: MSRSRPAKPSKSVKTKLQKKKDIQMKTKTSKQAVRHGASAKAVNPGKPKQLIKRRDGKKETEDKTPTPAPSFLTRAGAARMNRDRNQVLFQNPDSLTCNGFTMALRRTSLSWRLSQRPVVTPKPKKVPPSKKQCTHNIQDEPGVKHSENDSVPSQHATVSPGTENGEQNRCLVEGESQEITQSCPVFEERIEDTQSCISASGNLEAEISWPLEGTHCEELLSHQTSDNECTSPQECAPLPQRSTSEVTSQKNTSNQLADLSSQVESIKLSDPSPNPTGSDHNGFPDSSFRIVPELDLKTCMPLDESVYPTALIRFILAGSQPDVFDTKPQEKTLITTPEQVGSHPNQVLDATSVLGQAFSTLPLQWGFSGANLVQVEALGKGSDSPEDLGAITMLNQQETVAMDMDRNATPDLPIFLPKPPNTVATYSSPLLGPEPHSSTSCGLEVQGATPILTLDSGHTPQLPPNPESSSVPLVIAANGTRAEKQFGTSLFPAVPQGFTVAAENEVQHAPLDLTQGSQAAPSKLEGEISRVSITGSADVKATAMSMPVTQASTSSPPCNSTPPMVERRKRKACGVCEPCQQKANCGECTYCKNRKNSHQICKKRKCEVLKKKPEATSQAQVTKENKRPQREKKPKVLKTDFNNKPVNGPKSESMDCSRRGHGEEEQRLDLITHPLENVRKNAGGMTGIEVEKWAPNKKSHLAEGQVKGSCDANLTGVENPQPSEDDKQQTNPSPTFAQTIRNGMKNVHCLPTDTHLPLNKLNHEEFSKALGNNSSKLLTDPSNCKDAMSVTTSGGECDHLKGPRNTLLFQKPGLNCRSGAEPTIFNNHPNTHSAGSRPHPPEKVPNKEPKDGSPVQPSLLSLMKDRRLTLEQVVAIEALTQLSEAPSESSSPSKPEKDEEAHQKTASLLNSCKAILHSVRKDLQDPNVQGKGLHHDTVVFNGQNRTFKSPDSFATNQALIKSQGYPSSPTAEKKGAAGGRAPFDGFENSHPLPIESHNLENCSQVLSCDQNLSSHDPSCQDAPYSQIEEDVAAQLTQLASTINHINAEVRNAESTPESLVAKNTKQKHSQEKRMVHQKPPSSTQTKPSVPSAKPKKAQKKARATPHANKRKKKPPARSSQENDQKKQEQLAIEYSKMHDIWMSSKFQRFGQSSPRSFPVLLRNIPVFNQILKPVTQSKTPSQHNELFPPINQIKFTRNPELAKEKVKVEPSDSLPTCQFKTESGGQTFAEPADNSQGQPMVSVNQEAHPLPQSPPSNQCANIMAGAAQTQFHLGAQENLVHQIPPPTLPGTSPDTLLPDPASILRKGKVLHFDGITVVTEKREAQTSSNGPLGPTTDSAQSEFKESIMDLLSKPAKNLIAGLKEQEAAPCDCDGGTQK
UniProt Q3URK3, 1-1494: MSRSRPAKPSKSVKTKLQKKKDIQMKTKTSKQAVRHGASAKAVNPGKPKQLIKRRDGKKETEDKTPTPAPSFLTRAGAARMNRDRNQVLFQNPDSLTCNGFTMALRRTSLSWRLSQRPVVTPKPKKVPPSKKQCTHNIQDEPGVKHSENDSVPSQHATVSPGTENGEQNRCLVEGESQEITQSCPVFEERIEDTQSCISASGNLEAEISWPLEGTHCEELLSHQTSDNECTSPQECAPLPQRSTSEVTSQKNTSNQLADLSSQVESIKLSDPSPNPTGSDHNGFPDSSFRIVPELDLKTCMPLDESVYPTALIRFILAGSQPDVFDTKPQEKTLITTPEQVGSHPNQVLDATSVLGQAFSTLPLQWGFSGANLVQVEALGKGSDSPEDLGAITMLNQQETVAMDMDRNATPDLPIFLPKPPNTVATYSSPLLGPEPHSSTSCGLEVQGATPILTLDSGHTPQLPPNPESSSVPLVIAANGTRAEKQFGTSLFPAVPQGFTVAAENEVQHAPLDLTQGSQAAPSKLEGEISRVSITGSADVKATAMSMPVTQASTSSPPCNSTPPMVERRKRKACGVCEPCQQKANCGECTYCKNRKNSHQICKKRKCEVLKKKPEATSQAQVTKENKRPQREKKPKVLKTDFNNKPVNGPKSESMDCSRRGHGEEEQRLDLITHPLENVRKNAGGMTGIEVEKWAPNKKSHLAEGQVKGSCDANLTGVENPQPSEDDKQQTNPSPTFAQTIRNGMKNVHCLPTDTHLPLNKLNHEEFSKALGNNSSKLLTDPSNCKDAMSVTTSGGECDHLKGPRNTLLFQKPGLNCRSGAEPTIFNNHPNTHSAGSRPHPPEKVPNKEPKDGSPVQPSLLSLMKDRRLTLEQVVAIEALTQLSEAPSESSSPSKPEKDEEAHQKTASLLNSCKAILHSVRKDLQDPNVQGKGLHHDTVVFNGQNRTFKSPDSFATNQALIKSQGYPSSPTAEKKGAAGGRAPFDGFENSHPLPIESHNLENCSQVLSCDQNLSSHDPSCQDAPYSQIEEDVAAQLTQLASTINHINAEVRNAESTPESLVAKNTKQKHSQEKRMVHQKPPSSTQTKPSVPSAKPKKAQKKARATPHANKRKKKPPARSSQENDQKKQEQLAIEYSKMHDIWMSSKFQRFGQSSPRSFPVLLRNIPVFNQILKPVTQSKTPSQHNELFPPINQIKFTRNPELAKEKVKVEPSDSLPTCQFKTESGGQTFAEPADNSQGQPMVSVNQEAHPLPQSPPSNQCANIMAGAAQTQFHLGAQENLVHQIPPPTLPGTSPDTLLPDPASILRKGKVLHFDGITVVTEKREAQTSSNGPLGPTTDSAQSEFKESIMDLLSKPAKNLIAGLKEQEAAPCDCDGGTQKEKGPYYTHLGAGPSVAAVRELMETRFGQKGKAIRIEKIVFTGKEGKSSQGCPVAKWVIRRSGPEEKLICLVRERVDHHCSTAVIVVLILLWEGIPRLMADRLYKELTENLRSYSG

Legend:
Experiment in all cases: co-IP
[1] = target: (Flag)3-TET1 1-631 (mouse) (UniProt Q3URK3)
[2] = target: Full-length (Flag)3-TET1 Δ1733-1901 (Δlow) (mouse) (UniProt Q3URK3)
[3] = target: Full-length (Flag)3-TET1 triple mutant (Δ109-120 + Δ1132-1202 + 1522-1547 aromatic→A) (mouse) (UniProt Q3URK3)
[4] = target: (Flag)3-TET1 1-215 (mouse) (UniProt Q3URK3)
[5] = target: Full-length (Flag)3-TET1 Δ109-120 (Δ1) (mouse) (UniProt Q3URK3)
[6] = target: (Flag)3-TET1 1-1379 (WT) (mouse) (UniProt Q3URK3)
[7] = target: (Flag)3-TET1 1-1547 (WT) (mouse) (UniProt Q3URK3)
[8] = target: (Flag)3-TET1 1-1472 Δ1+2 (mouse) (UniProt Q3URK3)
[9] = target: (Flag)3-TET1 1-1494 (WT) (mouse) (UniProt Q3URK3)
[10] = target: Full-length (Flag)3-TET1 Δ1132-1202 (Δ2) (mouse) (UniProt Q3URK3)
[11] = target: (Flag)3-TET1 734-1155 (mouse) (UniProt Q3URK3)
[12] = target: (Flag)3-TET1 1-321 (mouse) (UniProt Q3URK3)
[13] = target: (Flag)3-TET1 734-1181 (mouse) (UniProt Q3URK3)
[14] = target: (Flag)3-TET1, full length (mouse) (UniProt Q3URK3)

B1: (HA)3-NANOG (protein, UniProt Q80Z64 1-305)
chain: MSVGLPGPHSLPSSEEASNSGNASSMPAVFHPENYSCLQGSATEMLCTEAASPRPSSEDLPLQGSPDSSTSPKQKLSSPEADKGPEEEENKVLARKQKMRTVFSQAQLCALKDRFQKQKYLSLQQMQELSSILNLSYKQVKTWFQNQRMKCKRWQKNQWLKTSNGLIQKGSAPVEYPSIHCSYPQGYLVNASGSLSMWGSQTWTNPTWSSQTWTNPTWNNQTWTNPTWSSQAWTAQSWNGQPWNAAPLHNFGEDFLQPYVQLQQNFSASDLEVNLEATRESHAHFSTPQALELFLNYSVTPPGEI
B1 was tested, and the binding [1] was “binds”, the binding [2] was “binds” and the binding [3] was “no binding”. For the same binder, the binding [4] was “binds”, the binding [5] was “binds” and the binding [6] was “binds weakly”. For the same binder, the binding [7] was “binds”, the binding [8] was “no binding” and the binding [9] was “binds weakly”. For the same binder, the binding [10] was “binds”, the binding [11] was “no binding” and the binding [12] was “binds”. The binding [13] was “binds” and the binding [14] was “binds”.
